Measured values reported in PubChem BioAssay AID504444 (National Center for Advancing Translational Sciences (NCATS), 2011).
Out of some 360,000 compounds screened, about 7,500 (2.1%) were called active. The shares of active, inactive and inconclusive entries below differ from those in the screen. Calls follow the shape of the dose curve; as a rule, active = well fitted inhibition curve with a large enough effect; inconclusive = small, poorly fitted or top-dose-only effect, or effect the other way; inactive = flat fitted curve, though single readings scatter. Potencies beside an inconclusive call are fits to weak or partial responses and may not hold up.

Experiment: Nrf2 qHTS screen for inhibitors; also: nearly all actives have a fitted effect of over 60% in size
Settings: A549 ARE-Fluc reporter, luciferase luminescence, 18-24 h; activity change, negative = inhibition: at 46 µM (top of the series)
Method in brief: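 In this cell-based qHTS, ARE-driven firefly luciferase in A549 cells reports Nrf2 activity; the luminescent signal after BugLite lysis is the measured value, with a prior CellTiter-Fluor read for cell health.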
% is scaled to controls: 0 for no effect and ±100 for the full control effect; potency is read from the fitted curve at half-maximal effect.

Row | Compound | Potency | activity change, negative = inhibition
1 | O=C(CCCCCn1c(=O)[nH]c2ccccc2c1=O)N1CCN(Cc2ccc3c(c2)OCO3)CC1 | inconclusive: 25.9 µM [falling, single point] | –
2 | Fc1cc(F)c2nc(N3CCCCC3)sc2c1 | inconclusive: 13 µM [activator, partial curve] | –
3 | COc1ccc(OC)c(NC(=O)Cn2c(=O)cc(-c3ccccc3)c3c(C)nn(C)c32)c1 | inconclusive: 20.6 µM [falling, single point] | –
4 | O=C(CSc1n[nH]c(-c2ccccc2)n1)Nc1ccc(Br)cn1 | inconclusive: 6.51 µM [activator, single point] | –
5 | Cc1nnc(NC(=O)CSc2nnc3scc(-c4ccc(C)c(C)c4)n23)s1 | – | inactive: -9.74%
6 | C/C(=N/Nc1nc(-c2ccccc2F)nc2ccccc12)c1ccccc1O | inconclusive: 18.4 µM [falling, single point] | –
7 | CCn1cc(C(=O)Nc2cccc(NC(C)=O)c2)c2cc(OC)c(OC)cc2c1=O | – | inactive: 0.724%
8 | Cc1ccc(OCc2ccc([N+](=O)[O-])cc2)c([N+](=O)[O-])n1 | inconclusive: 11.6 µM [activator, partial curve] | –
9 | Cc1cccc(N2CCN(C(=O)CS(=O)(=O)Cc3nc(-c4ccccc4C)oc3C)CC2C)c1 (centres undefined) | active: 23.1 µM | –
10 | CC1(C)Cc2c(c(N3CCOCC3)nc3sc4c(NCc5ccco5)nnnc4c23)CS1 | inconclusive: 20.6 µM [falling, single point] | –
11 | CCc1ccc(S(=O)(=O)c2nnn3c2nc(Nc2ccc(NC(C)=O)cc2)c2sccc23)cc1 | inconclusive: 29.1 µM [falling, single point] | –
12 | S=c1nc2c(n[nH]1)c1ccccc1n2CCc1ccccc1 | inconclusive: 29.1 µM [falling, single point] | –
13 | CCOc1ccc(N(Cc2ccccc2)C(=O)c2nc(S(C)(=O)=O)ncc2Cl)cc1 | inconclusive: 29.1 µM [falling, single point] | –
14 | CCOC(=O)c1ccc(Oc2cc(C)nc(SC)n2)cc1 | inconclusive: 10.3 µM [falling, partial curve, poor fit] | –
15 | CC(=O)C1C(c2ccc(Br)cc2)C2C(C)=NN=C2CC1(C)O (centres undefined) | inconclusive: 3.66 µM [falling, partial curve, poor fit] | –
16 | Cc1sc(NC(=O)CN(Cc2ccc(F)cc2)C(=O)C(C)C)c(C(N)=O)c1C | inconclusive: 20.6 µM [falling, single point] | –
17 | Cc1cc(N2CCCCC2)nc2ccc(NC(=O)CCC(=O)N3CCN(c4ccccc4)CC3)cc12 | inconclusive: 18.4 µM [falling, single point] | –
18 | O=C(Nc1cccc2cccnc12)C(F)(F)F | inconclusive: 1.03 µM [activator, full curve, poor fit] | –
19 | CC(=O)c1c(C(C)=O)c(C)n(-c2nc(-c3ccc(Br)cc3)c(C)s2)c1C | active: 25.9 µM | –
20 | Cc1ccc(S(=O)(=O)N2[C@@H](c3ccc(Cl)cc3)C(C(=O)O)=CC[C@H]2c2ccc(Cl)c(Cl)c2)cc1 | inconclusive: 20.6 µM [falling, single point] | –
21 | COc1ccc(C(=O)N(Cc2ccccc2)Cc2ccccc2)cc1COc1ccc(NC(C)=O)cc1 | inconclusive: 4.11 µM [activator, single point] | –
22 | COc1ccc(NC(=O)c2cc(C)cc(C)c2)cc1[N+](=O)[O-] | inconclusive: 23.1 µM [falling, single point] | –

Row | Compound | Potency | activity change, negative = inhibition
23 | COc1ccccc1NC(=S)NC(=O)c1ccc(Cn2cc(Br)cn2)cc1 | inconclusive: 20.6 µM [falling, single point] | –
24 | Cn1ccsc1=NC(=O)c1cccc(OC(F)F)c1 | inconclusive: 7.31 µM [activator, partial curve] | –
25 | CCOc1ccc(N(CC(=O)NC2CCCCC2)C(=O)CCCC(=O)Nc2ccccn2)cc1 | inconclusive: 4.11 µM [falling, full curve, poor fit] | –
26 | Cn1c(CC(=O)Nc2ccc(F)cc2)nnc1SCC(=O)Nc1nncs1 | inconclusive: 16.4 µM [activator, partial curve] | –
27 | Cc1ccc(-c2nc(NCc3ccco3)n(S(C)(=O)=O)n2)cc1 | inconclusive: 20.6 µM [activator, partial curve] | –
28 | COc1cc(NC(=O)COC(=O)Cc2ccsc2)cc(OC)c1 | – | inactive: 1.26%
29 | CCOC(=O)c1ccc(NC(=O)C2=C(C)Nc3nc(CCCO)nn3C2c2ccc(OC)cc2)cc1 (centres undefined) | inconclusive: 23.1 µM [falling, partial curve, poor fit] | –
30 | CCOC(=O)C1=C(O)/C(=C/c2cn(CC(=O)NCC3CCCO3)c3ccccc23)SC1=Nc1ccc(C)cc1 (centres undefined) | inconclusive: 14.6 µM [falling, partial curve, poor fit] | –
31 | COc1ccccc1OCCC(=O)OCC(=O)Nc1ccc(Br)cc1 | – | inactive: 8.92%
32 | CCN(CC)S(=O)(=O)c1ccc(NC(=O)CNC2CCCCC2)cc1 | inconclusive: 1.3 µM [falling, partial curve, poor fit] | –
33 | Cc1cc(C)nc(N2CCC(C(=O)Nc3cccc(C(F)(F)F)c3)CC2)n1 | inconclusive: 0.058 µM [falling, full curve] | –
34 | Cn1ccs/c1=N\C(=O)Nc1cccc(Cl)c1 | inconclusive: 7.31 µM [activator, partial curve] | –
35 | CSc1ccccc1C(=O)N(CC1CCCO1)c1c(N)n(Cc2ccccc2)c(=O)[nH]c1=O (centres undefined) | – | inactive: 10.5%
36 | O=C(Oc1ccc(/C=N/NC(=O)c2ccccn2)cc1)c1cccc(F)c1 | inconclusive: 20.6 µM [activator, single point] | –
37 | CC(C)Oc1ccc(S(=O)(=O)N2CCOCC2)cc1NC(=O)Cc1ccsc1 | inconclusive: 13 µM [falling, partial curve, poor fit] | –
38 | CCOC(=O)C1CCN(C(=O)Cn2cccc2C(=O)c2ccccc2)CC1 | – | inactive: -25.7%
39 | O=c1c2ccccc2nc(/C=C/c2cccnc2)n1CCc1ccccc1 | – | inactive: -19.2%
40 | CC1CCN(c2nc3ccc(C(=O)N4CCN(c5ccccc5)CC4)cc3s2)CC1 | inconclusive: 18.4 µM [falling, single point] | –
41 | CCOCCCNC(=S)Nc1cc(C)cc(C)c1 | inconclusive: 0.58 µM [activator, partial curve, poor fit] | –
42 | CCOc1ccc(N(CC)C(=O)c2cc3c(s2)-c2ccccc2OC3)cc1 | inconclusive: 20.6 µM [falling, single point] | –
43 | CSc1ccc(CN(C)C(=O)CNC(=O)c2sc3ccccc3c2Cl)cc1 | active: 10.3 µM | –
44 | COC(=O)c1sccc1NC(=O)COc1cccc(C)c1 | inconclusive: 10.3 µM [activator, partial curve, poor fit] | –

Of the compounds above, 2 have a CF3 group:
Row | Compound | Potency | activity change, negative = inhibition
18 | O=C(Nc1cccc2cccnc12)C(F)(F)F | inconclusive: 1.03 µM [activator, full curve, poor fit] | –
33 | Cc1cc(C)nc(N2CCC(C(=O)Nc3cccc(C(F)(F)F)c3)CC2)n1 | inconclusive: 0.058 µM [falling, full curve] | –

The list goes on.

Row | Compound | Potency | activity change, negative = inhibition
45 | Cc1ccc(S(=O)(=O)c2c(N)n(NC(=O)c3ccco3)c3nc4ccccc4nc23)cc1 | – | inactive: -28.5%
46 | Cc1ccc(C(=O)/C=C\Nc2ccc(C)c(C)c2)cc1 | inconclusive: 5.8 µM [activator, partial curve] | –
47 | c1cncc(COC2CCCN(Cc3nc(-c4cccs4)no3)C2)c1 (centres undefined) | inconclusive: 9.2 µM [falling, partial curve, poor fit] | –
48 | NNc1nc2sc3c(c2c(=O)n1C1CCCCC1)CCN(Cc1ccccc1)C3 | inconclusive: 3.26 µM [falling, single point] | –
49 | O=S(=O)(NCc1ccc(F)cc1)c1cc(Br)ccc1Br | inconclusive: 13 µM [falling, partial curve, poor fit] | –
50 | N=C1C(c2nc3ccccc3s2)=C(O)CN1NC(=O)c1ccc([N+](=O)[O-])cc1 | inconclusive: 23.1 µM [falling, single point] | –
51 | CC(c1ccco1)N(Cc1ccco1)C(=O)Nc1ccccc1 (centres undefined) | – | inactive: 8.37%
52 | COc1cc(/C=N\NC(=O)c2sc(N)nc2C)cc(OC)c1OC | inconclusive: 13 µM [falling, partial curve, poor fit] | –
53 | CCn1c(C)nc2cc(C(=O)N/N=C(\C)c3ccccc3O)ccc21 | inconclusive: 25.9 µM [falling, single point] | –
54 | COCCn1c(SCC(=O)Nc2cccc(C(=O)OC)c2)nc2ccccc2c1=O | inconclusive: 25.9 µM [falling, single point] | –
55 | N#Cc1ccc(CSc2nnc(Cc3cccs3)n2Cc2ccco2)cc1 | – | inactive: 2.11%
56 | C=CC[C@@H](CC(=O)N[C@@H](CO)Cc1ccccc1)C(=O)N[C@H](COC(=O)[C@@H](CC=C)Cc1ccc(F)cc1)C(C)(C)C | inconclusive: 29.1 µM [falling, single point] | –
57 | Cc1cc(C)nc(N/N=C/c2ccc3c(c2)OCCO3)n1 | inconclusive: 25.9 µM [activator, single point] | –
58 | O=C(COC(=O)c1ccccc1-n1cnnn1)c1ccc(F)cc1 | inconclusive: 23.1 µM [activator, partial curve] | –
59 | Fc1ccc(-c2csc(Nc3ccccn3)n2)cc1 | inconclusive: 7.31 µM [activator, partial curve] | –
60 | O=C(Nc1cccnc1)C1CCCN(S(=O)(=O)c2cccc3nsnc23)C1 (centres undefined) | inconclusive: 29.1 µM [falling, single point] | –
61 | CCN(CC)S(=O)(=O)c1ccc(N2CCOCC2)c(NC(=S)NC(=O)c2ccco2)c1 | – | inactive: -25.4%
62 | CCCSC(=S)c1c(C)[nH]n(-c2ccccc2)c1=O | inconclusive: 29.1 µM [falling, single point] | –
63 | NC(=O)COC(=O)c1oc2ccccc2c1CSc1ccc(Cl)cc1 | inconclusive: 29.1 µM [falling, single point] | –
64 | COc1ccc(-n2ncc3c(NCCCn4ccnc4)ncnc32)cc1 | inconclusive: 2.91 µM [activator, full curve] | –
